The list shows a part of the results, in another mix than the full data. At the low end of the ranking the order means little.
Each sequence was assayed against T1, ELF3 (UniProt P78545) (assay: DAPPL (digital affinity profiling via proximity ligation, sequencing)). Settings: 10 mM Tris-HCl pH 7.5, 50 mM NaCl, 1 mM DTT, 4% glycerol, room temperature, 30 min; GST-TFs on glutathione beads, 16-mer random dsDNA library, 0.1% …; high values mean tight binding; double strand, one strand shown; scale: fold enrichment (6-mer frequency, TF over GST control).
T1 sequence: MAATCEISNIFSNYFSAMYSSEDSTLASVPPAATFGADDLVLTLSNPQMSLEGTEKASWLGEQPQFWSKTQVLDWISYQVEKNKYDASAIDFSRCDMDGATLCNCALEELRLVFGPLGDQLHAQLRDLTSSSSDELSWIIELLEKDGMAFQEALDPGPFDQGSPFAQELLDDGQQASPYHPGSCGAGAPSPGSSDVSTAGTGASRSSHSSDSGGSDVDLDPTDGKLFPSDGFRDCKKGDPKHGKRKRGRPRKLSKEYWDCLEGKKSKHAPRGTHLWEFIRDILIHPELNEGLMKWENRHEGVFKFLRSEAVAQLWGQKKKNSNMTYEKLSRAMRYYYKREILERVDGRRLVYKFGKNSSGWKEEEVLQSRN

Sequences of proteins named here, by UniProt entry; tags and fusion partners are left off. A change or cut given only in a name is not applied to a line headed by its entry.
UniProt Q9Y603: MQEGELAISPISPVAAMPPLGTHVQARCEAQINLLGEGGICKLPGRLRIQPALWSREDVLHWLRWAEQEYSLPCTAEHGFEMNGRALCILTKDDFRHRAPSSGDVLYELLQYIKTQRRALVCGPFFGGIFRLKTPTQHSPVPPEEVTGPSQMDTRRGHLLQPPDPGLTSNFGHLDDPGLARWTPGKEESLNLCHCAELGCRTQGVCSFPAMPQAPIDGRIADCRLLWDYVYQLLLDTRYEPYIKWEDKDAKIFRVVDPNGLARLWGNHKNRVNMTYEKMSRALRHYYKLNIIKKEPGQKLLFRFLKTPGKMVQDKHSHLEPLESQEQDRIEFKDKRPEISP
UniProt P41212: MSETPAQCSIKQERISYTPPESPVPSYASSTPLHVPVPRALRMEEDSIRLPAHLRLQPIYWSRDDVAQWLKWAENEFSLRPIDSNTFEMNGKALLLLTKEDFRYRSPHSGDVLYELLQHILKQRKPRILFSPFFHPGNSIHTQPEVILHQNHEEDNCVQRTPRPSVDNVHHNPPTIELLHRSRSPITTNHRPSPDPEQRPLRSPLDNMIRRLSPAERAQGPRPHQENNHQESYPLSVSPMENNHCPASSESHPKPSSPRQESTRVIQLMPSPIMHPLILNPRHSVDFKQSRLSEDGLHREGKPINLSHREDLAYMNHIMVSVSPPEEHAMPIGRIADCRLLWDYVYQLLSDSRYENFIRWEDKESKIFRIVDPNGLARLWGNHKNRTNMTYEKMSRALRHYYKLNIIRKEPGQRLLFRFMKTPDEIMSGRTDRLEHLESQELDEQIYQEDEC

Sequence	binding signal
TAGAGA	0.799
AGCACG	0.894
ACAGTT	0.888
GCTAAG	0.991
CCAGAT	0.963
TGGGAC	0.767
TAAGAC	0.869
CCACCA	0.96
CTAGAC	0.975
GTGGTA	0.812
GCCAAC	0.898
AGTTAC	0.969
ATCACG	1.01
CGCCAC	0.93
CGTCGA	0.803
AGGGAT	0.801
GTAGCG	0.833
GTCTAG	0.894
ACTGGG	0.742
TAGGGC	0.942

Sequence	binding signal
GATTGC	0.968
GTTGGC	0.72
CCAGCT	1.04
TCGTCG	0.86
CTGGGG	0.765
CTAGGG	0.967
CGCACA	0.956
GACGTT	0.986
AGAACT	0.857
GTGTAC	0.823
TGAAAG	0.94
AGGACC	0.898
GTTAGC	0.888
GTCCGG	0.894
AGATCA	0.909
GGTCCA	0.765
TGTTGG	0.969
TTGGCG	0.889
GAGCTC	0.954
TGGCGT	0.878

The sequences below were run against ETV7 (UniProt Q9Y603) in the same assay as above. Settings: 10 mM Tris-HCl pH 7.5, 50 mM NaCl, 1 mM DTT, 4% glycerol, room temperature, 30 min; GST-TFs on glutathione beads, 16-mer random dsDNA library, 0.1% …; high values mean tight binding; double strand, one strand shown; scale: fold enrichment (6-mer frequency, TF over GST control).

Sequence	binding signal
TAGAGA	0.816
AGCACG	0.929
ACAGTT	0.836
GCTAAG	0.999
CCAGAT	0.934
TGGGAC	0.908
TAAGAC	0.881
CCACCA	0.996
CTAGAC	0.88
GTGGTA	0.961
GCCAAC	0.915
AGTTAC	0.98
ATCACG	0.993
CGCCAC	0.999
CGTCGA	0.94
AGGGAT	0.869
GTAGCG	0.855
GTCTAG	0.843
ACTGGG	0.929
TAGGGC	1.07

Sequence	binding signal
GATTGC	1.03
GTTGGC	0.89
CCAGCT	0.997
TCGTCG	0.999
CTGGGG	0.956
CTAGGG	0.881
CGCACA	0.961
GACGTT	0.991
AGAACT	0.975
GTGTAC	0.999
TGAAAG	0.98
AGGACC	0.947
GTTAGC	0.998
GTCCGG	0.87
AGATCA	0.853
GGTCCA	0.876
TGTTGG	0.91
TTGGCG	0.949
GAGCTC	0.837
TGGCGT	0.973

These sequences were tested against ETV6 (UniProt P41212) in the same assay as above. Settings: 10 mM Tris-HCl pH 7.5, 50 mM NaCl, 1 mM DTT, 4% glycerol, room temperature, 30 min; GST-TFs on glutathione beads, 16-mer random dsDNA library, 0.1% …; high values mean tight binding; double strand, one strand shown; scale: fold enrichment (6-mer frequency, TF over GST control).

Sequence	binding signal
TAGAGA	0.813
AGCACG	0.866
ACAGTT	0.853
GCTAAG	0.983
CCAGAT	0.857
TGGGAC	0.87
TAAGAC	0.857
CCACCA	0.977
CTAGAC	0.924
GTGGTA	0.877
GCCAAC	0.898
AGTTAC	0.985
ATCACG	0.996
CGCCAC	0.957
CGTCGA	0.929
AGGGAT	0.815
GTAGCG	0.977
GTCTAG	0.808
ACTGGG	0.849
TAGGGC	0.987

Sequence	binding signal
GATTGC	0.954
GTTGGC	0.948
CCAGCT	0.882
TCGTCG	0.98
CTGGGG	0.929
CTAGGG	0.842
CGCACA	0.974
GACGTT	0.944
AGAACT	0.992
GTGTAC	0.908
TGAAAG	0.958
AGGACC	1.02
GTTAGC	0.98
GTCCGG	0.979
AGATCA	0.854
GGTCCA	0.906
TGTTGG	0.911
TTGGCG	0.969
GAGCTC	0.909
TGGCGT	0.889
